Reference: PMC5057127
These are yes or no findings as the source states them, for the method shown.

How the values were obtained:
[1] = target: Cicer arietinum galactinol synthase 1 (CaGolS1) (Cicer arietinum (chickpea)); assay: SEC; gel filtration of the recombinant protein on AKTA Prime Plus, column calibrated with molecular weight standards; 20 mM Tris-Cl pH 7.6, 150 mM NaCl, 2 mM beta-ME, 10% glycerol; 0.4 ml/min; both purified
[2] = target: Cicer arietinum galactinol synthase 2 (CaGolS2) (Cicer arietinum (chickpea)); assay: as above

Substance: Cicer arietinum galactinol synthase 1 (CaGolS1) (from UniProt A0ACM7D3V3 1-339) (enzyme)
- binding [1]: no binding

Substance: Cicer arietinum galactinol synthase 2 (CaGolS2) (from UniProt A0A1S2XWH8 1-325) (enzyme)
- binding [2]: no binding
